{"source": "PubChem BioAssay AID493246, Drosophila RNAi Screening Center | 2011", "assay": "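Genome-wide search for dsRNAs that reduce cell number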 (primary screen)", "cell system": "Drosophila Kc and S2R+ cells", "reagents": "long dsRNA against Drosophila genes", "measurement": "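Cell number per well after knock-down, printed as raw plate values; calls were based on per-plate z-scores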", "direction": "Kc cell number and S2R+ cell number: higher = more cells remaining", "rule for the call": "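Counted as a hit if cell number falls by a z-score of at least 3 within its plate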", "note": "In all, the deposit lists about 21,000 reagents; shown is an unselected part of those with a known target gene and a result. Over the whole deposit, 429 (2%) were called active. 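Values are raw and not normalised between plates; calls rest on per-plate z-scores that were not deposited.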 A number with no mark means an inactive call. Reagents against one gene are numbered here. A plus sign joins genes that one reagent is predicted to hit. Not stated in the record: the amount of reagent, the time to read-out."}
{"target": "AkhR", "reagent": 1, "Kc cell number, rep 1": 1.26e6, "Kc cell number, rep 2": 1.30e6, "S2R+ cell number, rep 1": 7.14e5, "S2R+ cell number, rep 2": 5.59e5}
{"target": "CG15719", "reagent": 1, "Kc cell number, rep 1": 1.57e6, "Kc cell number, rep 2": 1.68e6, "S2R+ cell number, rep 1": 1.02e6, "S2R+ cell number, rep 2": 1.18e6}
{"target": "inc", "reagent": 1, "Kc cell number, rep 1": 1.60e6, "Kc cell number, rep 2": 1.64e6, "S2R+ cell number, rep 1": 9.85e5, "S2R+ cell number, rep 2": 1.12e6}
{"target": "inc", "reagent": 2, "Kc cell number, rep 1": 5.23e5, "S2R+ cell number, rep 1": 8.39e5}
{"target": "CG42537", "reagent": 1, "Kc cell number, rep 1": 1.51e6, "Kc cell number, rep 2": 1.65e6, "S2R+ cell number, rep 1": 1.31e6, "S2R+ cell number, rep 2": 1.46e6}
{"target": "Egfr", "reagent": 1, "Kc cell number, rep 1": 6.42e5, "S2R+ cell number, rep 1": 9.05e5}
{"target": "Egfr", "reagent": 2, "Kc cell number, rep 1": 1.30e6, "Kc cell number, rep 2": 1.42e6, "S2R+ cell number, rep 1": 1.15e6, "S2R+ cell number, rep 2": 1.22e6}
{"target": "Tsp42Eb + CG30160", "reagent": 1, "Kc cell number, rep 1": 1.47e6, "Kc cell number, rep 2": 1.55e6, "S2R+ cell number, rep 1": 1.00e6, "S2R+ cell number, rep 2": 1.12e6}
{"target": "Tsp42Eb + CG30160", "reagent": 2, "Kc cell number, rep 1": 1.60e6, "Kc cell number, rep 2": 1.66e6, "S2R+ cell number, rep 1": 1.36e6, "S2R+ cell number, rep 2": 1.52e6}
{"target": "l(2)03659", "reagent": 1, "Kc cell number, rep 1": 1.47e6, "Kc cell number, rep 2": 1.57e6, "S2R+ cell number, rep 1": 1.26e6, "S2R+ cell number, rep 2": 1.39e6}
{"target": "l(2)03659", "reagent": 2, "Kc cell number, rep 1": 1.53e6, "Kc cell number, rep 2": 1.57e6, "S2R+ cell number, rep 1": 1.31e6, "S2R+ cell number, rep 2": 1.39e6}
{"target": "ng3", "reagent": 1, "Kc cell number, rep 1": 1.63e6, "Kc cell number, rep 2": 1.57e6, "S2R+ cell number, rep 1": 1.08e6, "S2R+ cell number, rep 2": 1.22e6}
{"target": "Acsx4", "reagent": 1, "Kc cell number, rep 1": 1.16e6, "Kc cell number, rep 2": 1.13e6, "S2R+ cell number, rep 1": 1.04e6, "S2R+ cell number, rep 2": 1.15e6}
{"target": "CG9114", "reagent": 1, "Kc cell number, rep 1": 1.61e6, "Kc cell number, rep 2": 1.63e6, "S2R+ cell number, rep 1": 1.03e6, "S2R+ cell number, rep 2": 1.12e6}
{"target": "Est-Q", "reagent": 1, "Kc cell number, rep 1": 1.47e6, "Kc cell number, rep 2": 1.56e6, "S2R+ cell number, rep 1": 1.21e6, "S2R+ cell number, rep 2": 1.27e6}
{"target": "alpha-Est3", "reagent": 1, "Kc cell number, rep 1": 1.66e6, "Kc cell number, rep 2": 1.67e6, "S2R+ cell number, rep 1": 1.21e6, "S2R+ cell number, rep 2": 1.30e6}
{"target": "Mgat1", "reagent": 1, "Kc cell number, rep 1": 1.64e6, "Kc cell number, rep 2": 1.48e6, "S2R+ cell number, rep 1": 9.88e5, "S2R+ cell number, rep 2": 1.26e6}
{"target": "Prosalpha6", "reagent": 1, "Kc cell number, rep 1": "1.08e6 (active)", "Kc cell number, rep 2": 1.16e6, "S2R+ cell number, rep 1": 7.02e5, "S2R+ cell number, rep 2": 7.91e5}
{"target": "glob3", "reagent": 1, "Kc cell number, rep 1": 1.58e6, "Kc cell number, rep 2": 1.93e6, "S2R+ cell number, rep 1": 1.28e6, "S2R+ cell number, rep 2": 1.40e6}
{"target": "tun", "reagent": 1, "Kc cell number, rep 1": 1.56e6, "Kc cell number, rep 2": 1.52e6, "S2R+ cell number, rep 1": 1.09e6, "S2R+ cell number, rep 2": 1.24e6}
{"target": "tun", "reagent": 2, "Kc cell number, rep 1": 1.41e6, "Kc cell number, rep 2": 1.46e6, "S2R+ cell number, rep 1": 1.10e6, "S2R+ cell number, rep 2": 1.14e6}
{"target": "CG9926", "reagent": 1, "Kc cell number, rep 1": 1.52e6, "Kc cell number, rep 2": 1.58e6, "S2R+ cell number, rep 1": 1.15e6, "S2R+ cell number, rep 2": 1.19e6}
{"target": "Asator", "reagent": 1, "Kc cell number, rep 1": 1.48e6, "Kc cell number, rep 2": 1.45e6, "S2R+ cell number, rep 1": 1.02e6, "S2R+ cell number, rep 2": 1.09e6}
{"target": "CG17472", "reagent": 1, "Kc cell number, rep 1": 1.62e6, "Kc cell number, rep 2": 1.76e6, "S2R+ cell number, rep 1": 1.35e6, "S2R+ cell number, rep 2": 2.92e5}
{"target": "CG15118", "reagent": 1, "Kc cell number, rep 1": 1.47e6, "Kc cell number, rep 2": 1.55e6, "S2R+ cell number, rep 1": 1.05e6, "S2R+ cell number, rep 2": 1.01e6}
{"target": "CG14717", "reagent": 1, "Kc cell number, rep 1": 1.49e6, "Kc cell number, rep 2": 1.50e6, "S2R+ cell number, rep 1": 1.28e6, "S2R+ cell number, rep 2": 1.35e6}
{"target": "Rsph3", "reagent": 1, "Kc cell number, rep 1": 1.39e6, "Kc cell number, rep 2": 1.50e6, "S2R+ cell number, rep 1": 1.17e6, "S2R+ cell number, rep 2": 1.16e6}
{"target": "Rsph3", "reagent": 2, "Kc cell number, rep 1": 1.37e6, "Kc cell number, rep 2": 1.62e6, "S2R+ cell number, rep 1": 1.16e6, "S2R+ cell number, rep 2": 1.25e6}

Hits, of those listed so far:
{"target": "Prosalpha6", "reagent": 1, "Kc cell number, rep 1": "1.08e6 (active)", "Kc cell number, rep 2": 1.16e6, "S2R+ cell number, rep 1": 7.02e5, "S2R+ cell number, rep 2": 7.91e5}
